These are yes or no findings as the source states them, for the method shown. In cells and extracts the contact can be indirect. Some entries that bind do so weakly or less than the wild type. Values belong to the molecule of their own block, whether it stands above or below them.
Experiments:
[1] = target: T1, PPARα, endogenous in mouse heart (mouse (endogenous in mouse heart)) (UniProt P23204); assay: co-IP; heart lysates of exercised or sedentary mice treated with vehicle or U0126; IP with anti-MEK1 or anti-PPARα antibody, Western blot; endogenous proteins
T1 sequence: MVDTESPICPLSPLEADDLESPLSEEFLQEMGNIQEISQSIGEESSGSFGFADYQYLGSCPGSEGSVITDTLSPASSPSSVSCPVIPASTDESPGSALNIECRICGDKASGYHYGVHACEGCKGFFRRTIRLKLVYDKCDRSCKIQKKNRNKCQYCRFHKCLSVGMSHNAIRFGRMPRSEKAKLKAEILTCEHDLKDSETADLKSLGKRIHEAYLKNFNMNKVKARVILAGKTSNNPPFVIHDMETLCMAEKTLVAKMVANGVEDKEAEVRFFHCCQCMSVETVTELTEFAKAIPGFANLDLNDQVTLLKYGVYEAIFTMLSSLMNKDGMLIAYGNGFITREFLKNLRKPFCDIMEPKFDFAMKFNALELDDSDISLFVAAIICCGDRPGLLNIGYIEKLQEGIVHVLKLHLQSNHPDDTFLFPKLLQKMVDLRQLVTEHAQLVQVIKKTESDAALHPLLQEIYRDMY

[2] = target: MEK1, endogenous in mouse heart (mouse (endogenous in mouse heart)) (UniProt P31938); assay: as above

binding [1]: binds
Molecule: MEK1, endogenous in mouse heart (from UniProt P31938 1-393) (enzyme)

binding [2]: binds
B1: PPARα, endogenous in mouse heart (protein, UniProt P23204 1-468)
chain: T1 sequence
